No constants are given. Whether binding was seen depends on the method and setting. Binding seen in cells or lysates may run through a third protein. Here binding means that the protein was enriched with, or labelled near, the bait; the list need not be complete.

In PMC5776122 one finds binding data, which are given here for 2 molecules.

The assay addresses His-tagged full length DENV2 capsid (purified) (Dengue virus serotype 2). Briefly: affinity purification with mass spectrometry; 2 mg purified His-capsid added in solution to 5 mg pre-cleared Huh-7 lysate, 4°C 2 h, captured on Ni-NTA beads, washed with 50 mM imidazole, eluted with 100 and 250 mM imidazole, LC MS/MS; 5% false-discovery rate, minimum 2 peptides per protein; only the target purified.

B1: Pyrroline-5-carboxylate reductase 2 (protein, UniProt Q96C36 1-320)
chain: MSVGFIGAGQLAYALARGFTAAGILSAHKIIASSPEMNLPTVSALRKMGVNLTRSNKETVKHSDVLFLAVKPHIIPFILDEIGADVQARHIVVSCAAGVTISSVEKKLMAFQPAPKVIRCMTNTPVVVQEGATVYATGTHALVEDGQLLEQLMSSVGFCTEVEEDLIDAVTGLSGSGPAYAFMALDALADGGVKMGLPRRLAIQLGAQALLGAAKMLLDSEQHPCQLKDNVCSPGGATIHALHFLESGGFRSLLINAVEASCIRTRELQSMADQEKISPAALKKTLLDRVKLESPTVSTLTPSSPGKLLTRSLALGGKKD
Consider B1, for which the binding entry was “binds”.

B2: Heterogeneous nuclear ribonucleoprotein A0 (protein, UniProt Q13151 1-305)
chain: MENSQLCKLFIGGLNVQTSESGLRGHFEAFGTLTDCVVVVNPQTKRSRCFGFVTYSNVEEADAAMAASPHAVDGNTVELKRAVSREDSARPGAHAKVKKLFVGGLKGDVAEGDLIEHFSQFGTVEKAEIIADKQSGKKRGFGFVYFQNHDAADKAAVVKFHPIQGHRVEVKKAVPKEDIYSGGGGGGSRSSRGGRGGRGRGGGRDQNGLSKGGGGGYNSYGGYGGGGGGGYNAYGGGGGGSSYGGSDYGNGFGGFGSYSQHQSSYGPMKSGGGGGGGGSSWGGRSNSGPYRGGYGGGGGYGGSSF
In the case of B2, the binding entry is “binds”.
